{"source": "PubChem BioAssay AID686943 (Drosophila RNAi Screening Center, 2013)", "aim": "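Fly genes whose loss alters ERK activation after insulin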 (primary screen)", "cell system": "Drosophila S2R+ haemocyte-like cells expressing YFP-tagged ERK (Rolled)", "knock-down reagent": "long dsRNA against Drosophila genes", "treatment": "insulin stimulation versus unstimulated cells; dose and duration not given", "read-out": "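Antibody staining for doubly phosphorylated ERK divided by ERK-YFP signal, as plate z-scores, in insulin-treated and untreated cells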", "direction": "replicate 1, z-score of dpERK with insulin and replicate 2, z-score of dpERK with insulin: higher = more active ERK per ERK-YFP after insulin", "note": "The screen tested about 23,000 reagents; shown is a random part of those with a known target gene and a result. 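Extra replicates exist only for a retested subset of genes; insulin dose and duration not given; both raised and lowered dpERK matter.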 Further read-outs or replicates are left out here. Not stated in the record: the amount of reagent, the time to read-out."}
{"gene knocked down":"CG14511 (GeneID 43445)","DRSC id":"DRSC14863","replicate 1, z-score of dpERK with insulin":-0.39,"replicate 2, z-score of dpERK with insulin":-0.02}
{"gene knocked down":"Brr2 (GeneID 39737)","DRSC id":"DRSC10559","replicate 1, z-score of dpERK with insulin":1.37,"replicate 2, z-score of dpERK with insulin":4.04}
{"gene knocked down":"CG7029 (GeneID 42703)","DRSC id":"DRSC16177","replicate 1, z-score of dpERK with insulin":-0.16,"replicate 2, z-score of dpERK with insulin":-0.16}
{"gene knocked down":"CG33494 (GeneID 2768686)","DRSC id":"DRSC13715","replicate 1, z-score of dpERK with insulin":-1.05,"replicate 2, z-score of dpERK with insulin":-1.89}
{"gene knocked down":"Tudor-SN (GeneID 38045)","DRSC id":"DRSC08581","replicate 1, z-score of dpERK with insulin":-0.35,"replicate 2, z-score of dpERK with insulin":-0.7}
{"gene knocked down":"PrBP (GeneID 34196)","DRSC id":"DRSC03189","replicate 1, z-score of dpERK with insulin":1.31,"replicate 2, z-score of dpERK with insulin":2.15}
{"gene knocked down":"Ptp36E (GeneID 35091)","DRSC id":"DRSC03021","replicate 1, z-score of dpERK with insulin":0.07,"replicate 2, z-score of dpERK with insulin":0.88}
{"gene knocked down":"CG14223 (GeneID 32972)","DRSC id":"DRSC19580","replicate 1, z-score of dpERK with insulin":-0.35,"replicate 2, z-score of dpERK with insulin":-0.04}

A few values from the entries so far.
CG33494 (GeneID 2768686) [DRSC13715], replicate 2, z-score of dpERK with insulin = -1.89
Value of PrBP (GeneID 34196) [DRSC03189] in “replicate 1, z-score of dpERK with insulin”: 1.31

The listing continues:
{"gene knocked down":"shams (GeneID 43008)","DRSC id":"DRSC16590","replicate 1, z-score of dpERK with insulin":-0.49,"replicate 2, z-score of dpERK with insulin":0.19}
{"gene knocked down":"CG17717 (GeneID 31592)","DRSC id":"DRSC18130","replicate 1, z-score of dpERK with insulin":-0.04,"replicate 2, z-score of dpERK with insulin":1.15}
{"gene knocked down":"prim (GeneID 36814)","DRSC id":"DRSC06575","replicate 1, z-score of dpERK with insulin":-0.04,"replicate 2, z-score of dpERK with insulin":-0.14}
{"gene knocked down":"CG13502 (GeneID 37518)","DRSC id":"DRSC04147","replicate 1, z-score of dpERK with insulin":0.13,"replicate 2, z-score of dpERK with insulin":0.32}
